Data as given in PubChem BioAssay AID1671195 (Yale University, 2021)
Screen: 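Regulators of LDL receptor activity judged by labelled LDL uptake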 (primary screen). System: human Huh7 hepatoma cells. Reagent: siRNA pool against human genes, 18 nM. Timing: about 2 to 2.5 days of knockdown, then 8 h LDL uptake. Conditions: DiI-labelled LDL at 30 µg/ml for 8 h, in lipoprotein-deficient serum medium. Measured: 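Fluorescent LDL signal imaged in cells, scaled to the plate median, robust z-score for each replicate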. Reading the numbers: robust z-score: higher = more LDL uptake after knockdown. Rule for the call: 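Active when two or more replicates show a robust z-score above 2 or below -2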.
The whole screen tested about 22,000 reagents; shown is an unselected part. About 1,510 of them (6.9%) were called active. 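Active includes knockdowns raising or lowering LDL uptake; positive z-scores mean more uptake, negative mean less.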 A number with no mark means an inactive call.

How did the screen score KCNAB3?
robust z-score, replicate 1: 0.968; robust z-score, replicate 2: 0.855; robust z-score, replicate 3: 0.713

For CXCL16 (C-X-C motif chemokine ligand 16), how do the results read?
robust z-score, replicate 1: 0.0659; robust z-score, replicate 2: 0.332; robust z-score, replicate 3: 0.642

With RTF1 (RTF1 homolog, Paf1/RNA polymerase II complex component), how do the results read?
robust z-score, replicate 1: -0.588; robust z-score, replicate 2: -0.0566; robust z-score, replicate 3: -0.676

With CENPH (centromere protein H), what was measured?
robust z-score, replicate 1: 0.125; robust z-score, replicate 2: -0.542; robust z-score, replicate 3: -0.771

Which result is listed for ST7L (suppression of tumorigenicity 7 like)?
robust z-score, replicate 1: 1.22; robust z-score, replicate 2: 0.38; robust z-score, replicate 3: 1.83

For CRLF3 (cytokine receptor like factor 3), how do the results read?
robust z-score, replicate 1: 0.402; robust z-score, replicate 2: 0.923; robust z-score, replicate 3: 1.26

For LYLDT1 (lysosomal-lipid droplet tether 1), how do the results read?
robust z-score, replicate 1: 0.644; robust z-score, replicate 2: 0.14; robust z-score, replicate 3: -0.376

For CABIN1 (calcineurin binding protein 1), how do the results read?
robust z-score, replicate 1: 0.978; robust z-score, replicate 2: -1.96; robust z-score, replicate 3: 0.477

What is on record for UTS2 (urotensin 2)?
robust z-score, replicate 1: 1.7; robust z-score, replicate 2: 1.54; robust z-score, replicate 3: -0.386

For MAMDC4 (MAM domain containing 4), how do the results read?
robust z-score, replicate 1: -1.24; robust z-score, replicate 2: -1.01; robust z-score, replicate 3: -1.17

With KCNJ2 (potassium inwardly rectifying channel subfamily J member 2), what was measured?
robust z-score, replicate 1: -0.181; robust z-score, replicate 2: -0.623; robust z-score, replicate 3: -0.185

Which result is listed for COLGALT1 (collagen beta(1-O)galactosyltransferase 1)?
robust z-score, replicate 1: 1.41; robust z-score, replicate 2: 1.73; robust z-score, replicate 3: 1.95

2 of these entries, set out differently.
{"Target gene":"ST7L (suppression of tumorigenicity 7 like)","robust z-score, replicate 1":1.22,"robust z-score, replicate 2":0.38,"robust z-score, replicate 3":1.83}
{"Target gene":"CRLF3 (cytokine receptor like factor 3)","robust z-score, replicate 1":0.402,"robust z-score, replicate 2":0.923,"robust z-score, replicate 3":1.26}
